{"source": "PubChem BioAssay AID1224830 (NIAID, 2016)", "test": "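Genes whose knock-down alters the TNF-alpha reporter response to LPS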 (primary screen)", "system": "human THP-1 monocytic leukaemia cells, TNF dual-luciferase reporter clone, PMA-differentiated to macrophage-like cells", "knock-down reagent": "siRNA pool against human genes, 50 nM", "time to read-out": "LPS for 4 h, given about 3 days after siRNA transfection", "treatment": "bacterial LPS (TLR4 ligand), 10 ng/ml", "read-out": "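TNF firefly reporter luminescence divided by renilla, normalised to the plate median, then turned into a robust z-score for each replicate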", "reading the numbers": "TNF reporter robust z-score: higher = stronger TNF reporter response to LPS", "call rule": "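Each well counts as active if its z-score is over 2.8 or under -1.5; controls are left without a call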", "note": "This is an unselected part of about 18,000 deposited reagents. Over the whole deposit, about 2,900 (16%) were called active. 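Calls are made per well; low scores hint the gene aids the LPS response, high scores that it dampens it.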 Repeated entries: four replicate wells of each siRNA pool."}
{"gene knocked down": "QARS1", "TNF reporter robust z-score": 1.72, "Call": "inactive"}
{"gene knocked down": "QARS1", "TNF reporter robust z-score": 0, "Call": "inactive"}
{"gene knocked down": "QARS1", "TNF reporter robust z-score": 3.17, "Call": "active"}
{"gene knocked down": "QARS1", "TNF reporter robust z-score": 2.26, "Call": "inactive"}
{"gene knocked down": "ARG2", "TNF reporter robust z-score": 1.01, "Call": "inactive"}
{"gene knocked down": "ARG2", "TNF reporter robust z-score": -0.06, "Call": "inactive"}
{"gene knocked down": "ARG2", "TNF reporter robust z-score": 1.4, "Call": "inactive"}
{"gene knocked down": "ARG2", "TNF reporter robust z-score": 0.14, "Call": "inactive"}
{"gene knocked down": "OR51V1", "TNF reporter robust z-score": -0.74, "Call": "inactive"}
{"gene knocked down": "OR51V1", "TNF reporter robust z-score": -0.8, "Call": "inactive"}
{"gene knocked down": "OR51V1", "TNF reporter robust z-score": -0.45, "Call": "inactive"}
{"gene knocked down": "ZNF404", "TNF reporter robust z-score": 0.41, "Call": "inactive"}
{"gene knocked down": "ZNF404", "TNF reporter robust z-score": -0.43, "Call": "inactive"}
{"gene knocked down": "ZNF404", "TNF reporter robust z-score": 0.13, "Call": "inactive"}
{"gene knocked down": "ZNF404", "TNF reporter robust z-score": 0.58, "Call": "inactive"}
{"gene knocked down": "GAGE2C", "TNF reporter robust z-score": -0.46, "Call": "inactive"}
{"gene knocked down": "GAGE2C", "TNF reporter robust z-score": 0.67, "Call": "inactive"}
{"gene knocked down": "GAGE2C", "TNF reporter robust z-score": -0.34, "Call": "inactive"}
{"gene knocked down": "GAGE2C", "TNF reporter robust z-score": 1.02, "Call": "inactive"}
{"gene knocked down": "TMEM156", "TNF reporter robust z-score": 0.72, "Call": "inactive"}
{"gene knocked down": "TMEM156", "TNF reporter robust z-score": 0.61, "Call": "inactive"}
{"gene knocked down": "TMEM156", "TNF reporter robust z-score": 0.25, "Call": "inactive"}
{"gene knocked down": "TMEM156", "TNF reporter robust z-score": -0.6, "Call": "inactive"}
{"gene knocked down": "SLC6A4", "TNF reporter robust z-score": 0.39, "Call": "inactive"}
{"gene knocked down": "SLC6A4", "TNF reporter robust z-score": 0.52, "Call": "inactive"}
{"gene knocked down": "SLC6A4", "TNF reporter robust z-score": 0.57, "Call": "inactive"}
{"gene knocked down": "SLC6A4", "TNF reporter robust z-score": 1.44, "Call": "inactive"}

No new results follow: an excerpt of the list.
{"gene knocked down": "ZNF404", "TNF reporter robust z-score": 0.41, "Call": "inactive"}
{"gene knocked down": "ZNF404", "TNF reporter robust z-score": -0.43, "Call": "inactive"}
{"gene knocked down": "ZNF404", "TNF reporter robust z-score": 0.13, "Call": "inactive"}
{"gene knocked down": "ZNF404", "TNF reporter robust z-score": 0.58, "Call": "inactive"}

Next results:
{"gene knocked down": "TRIM63", "TNF reporter robust z-score": 1.85, "Call": "inactive"}
{"gene knocked down": "TRIM63", "TNF reporter robust z-score": 5.13, "Call": "active"}
{"gene knocked down": "TRIM63", "TNF reporter robust z-score": 0.38, "Call": "inactive"}
{"gene knocked down": "TRIM63", "TNF reporter robust z-score": 1.45, "Call": "inactive"}
{"gene knocked down": "COQ2", "TNF reporter robust z-score": -0.95, "Call": "inactive"}
{"gene knocked down": "COQ2", "TNF reporter robust z-score": -1.18, "Call": "inactive"}
{"gene knocked down": "COQ2", "TNF reporter robust z-score": -1, "Call": "inactive"}
{"gene knocked down": "COQ2", "TNF reporter robust z-score": -0.98, "Call": "inactive"}
{"gene knocked down": "B2M", "TNF reporter robust z-score": -0.48, "Call": "inactive"}
{"gene knocked down": "B2M", "TNF reporter robust z-score": -0.31, "Call": "inactive"}
{"gene knocked down": "B2M", "TNF reporter robust z-score": -1.05, "Call": "inactive"}
{"gene knocked down": "B2M", "TNF reporter robust z-score": -0.7, "Call": "inactive"}
{"gene knocked down": "ATP6V1H", "TNF reporter robust z-score": 1.28, "Call": "inactive"}
{"gene knocked down": "ATP6V1H", "TNF reporter robust z-score": -0.79, "Call": "inactive"}
{"gene knocked down": "ATP6V1H", "TNF reporter robust z-score": -0.56, "Call": "inactive"}
{"gene knocked down": "AGPS", "TNF reporter robust z-score": 3, "Call": "active"}
{"gene knocked down": "AGPS", "TNF reporter robust z-score": 1.06, "Call": "inactive"}
{"gene knocked down": "AGPS", "TNF reporter robust z-score": 1.39, "Call": "inactive"}
{"gene knocked down": "AGPS", "TNF reporter robust z-score": 3.73, "Call": "active"}
{"gene knocked down": "GBP1", "TNF reporter robust z-score": -0.5, "Call": "inactive"}
{"gene knocked down": "GBP1", "TNF reporter robust z-score": -0.34, "Call": "inactive"}
{"gene knocked down": "GBP1", "TNF reporter robust z-score": -0.62, "Call": "inactive"}
{"gene knocked down": "GBP1", "TNF reporter robust z-score": -0.28, "Call": "inactive"}
